Four molecules from paper doi:10.1101/2022.07.27.501734 can be followed below.

Sequences of proteins named here, by UniProt entry; tags and fusion partners are left off. Residues count along the entry.
UniProt Q8K2B3, residues 43-664: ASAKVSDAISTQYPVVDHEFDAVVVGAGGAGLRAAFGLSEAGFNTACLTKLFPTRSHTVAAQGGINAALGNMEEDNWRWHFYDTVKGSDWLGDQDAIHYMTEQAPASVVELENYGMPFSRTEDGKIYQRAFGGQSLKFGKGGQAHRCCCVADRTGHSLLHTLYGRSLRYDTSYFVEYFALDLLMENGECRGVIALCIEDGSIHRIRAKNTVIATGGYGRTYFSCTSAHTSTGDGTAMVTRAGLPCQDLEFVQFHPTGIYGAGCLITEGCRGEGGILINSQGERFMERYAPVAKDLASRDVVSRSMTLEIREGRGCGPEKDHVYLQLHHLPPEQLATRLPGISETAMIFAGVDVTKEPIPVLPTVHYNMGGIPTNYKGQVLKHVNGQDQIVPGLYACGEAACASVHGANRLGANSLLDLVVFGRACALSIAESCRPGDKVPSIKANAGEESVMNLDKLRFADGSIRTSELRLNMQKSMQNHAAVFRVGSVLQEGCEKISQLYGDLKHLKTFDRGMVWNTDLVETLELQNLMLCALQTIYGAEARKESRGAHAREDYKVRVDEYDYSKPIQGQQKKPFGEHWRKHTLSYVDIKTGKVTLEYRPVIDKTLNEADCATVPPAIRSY
UniProt Q03265, residues 44-553: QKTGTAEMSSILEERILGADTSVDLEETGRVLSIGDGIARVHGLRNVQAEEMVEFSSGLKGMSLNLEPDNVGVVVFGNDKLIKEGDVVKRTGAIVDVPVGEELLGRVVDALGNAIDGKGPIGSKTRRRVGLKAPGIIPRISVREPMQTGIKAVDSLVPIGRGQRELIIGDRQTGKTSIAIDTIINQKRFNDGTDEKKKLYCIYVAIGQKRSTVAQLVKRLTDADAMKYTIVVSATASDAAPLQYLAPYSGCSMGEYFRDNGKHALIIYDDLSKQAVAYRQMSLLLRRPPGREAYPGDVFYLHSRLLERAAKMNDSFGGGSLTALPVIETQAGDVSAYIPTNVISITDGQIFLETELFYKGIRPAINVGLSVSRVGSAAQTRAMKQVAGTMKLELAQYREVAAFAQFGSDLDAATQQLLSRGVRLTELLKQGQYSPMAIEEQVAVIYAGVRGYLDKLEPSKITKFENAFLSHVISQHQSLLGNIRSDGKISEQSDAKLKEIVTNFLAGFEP
UniProt Q9D6J5, residues 29-186: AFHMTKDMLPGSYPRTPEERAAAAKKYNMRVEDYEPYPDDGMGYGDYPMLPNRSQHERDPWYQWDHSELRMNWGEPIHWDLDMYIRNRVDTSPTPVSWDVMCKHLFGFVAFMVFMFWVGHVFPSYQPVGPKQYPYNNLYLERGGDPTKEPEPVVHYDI

No constants are given. Whether binding was seen depends on the method and setting. In cells and extracts the contact can be indirect. Some binding calls cover weakened binding; strength is not graded here.

B1: succinate dehydrogenase B (SDHB) (protein, UniProt Q9CQA3 31-282)
chain: AQTAAAAAPRIKKFAIYRWDPDKTGDKPRMQTYEVDLNKCGPMVLDALIKIKNEVDSTLTFRRSCREGICGSCAMNINGGNTLACTRRIDTDLSKVSKIYPLPHMYVIKDLVPDLSNFYAQYKSIEPYLKKKDESQEGKQQYLQSIEDREKLDGLYECILCACCSTSCPSYWWNGDKYLGPAVLMQAYRWMIDSRDDFTEERLAKLQDPFSVYRCHTIMNCTQTCPKGLNPGKAIAEIKKMMATYKEKRALA
B2: UQCRC2 (protein, UniProt Q9DB77 15-453)
chain: SLKVAPKVKTSAAPGGVPLQPQDLEFTKLPNGLVIASLENYAPLSRIGLFVKAGSRYEDSNNLGTSHLLRLASSLTTKGASSFKITRGIEAVGGKLSVTATRENMAYTVEGIRSDIEILMEFLLNVTTAPEFRRWEVAALRSQLKIDKAVAFQNSQTRIIENLHDVAYKNALANPLYCPDYRMGKITSEELHYFVQNHFTSARMALVGLGVSHSVLKQVAEQFLNMRGGLGLAGAKAKYRGGEIREQNGDNLVHAAIVAESAAIGNAEANAFSVLQHLLGAGPHIKRGNNTTSLLSQSVAKGSHQPFDVSAFNASYSDSGLFGIYTISQAAAAGEVINAAYNQVKAVAQGNLSSADVQAAKNKLKAGYLMSVETSEGFLSEIGSQALAAGSYMPPSTVLQQIDSVADADVVKAAKKFVSGKKSMAASGNLGHTPFLDEL

In the assay the target is SDHA (mouse (endogenous in iBMDM)) (UniProt Q8K2B3). In words: co-IP.
ATPA5 (from UniProt Q03265 44-553): the binding entry is “no binding”.

On to NDUFB8 (from UniProt Q9D6J5 29-186), for which the binding entry is given as “no binding”.

Turning to B1, the binding entry is “binds”.

As to B2, the binding result is “no binding”.
